This is one part of the list.
What was measured:
Experiment in all cases: log2 fold change, soluble protein after heating vs DMSO (PISA); higher = thermal stabilisation; K562 cells, 10 uM, 30 min; active = over 0.2 and 3.5 SD of the protein, either way, in both replicates (recomputed)
[1] = compound: NC(=O)Nc1cc(-c2cccc(F)c2)sc1C(=O)N[C@H]1CCCNC1
Summary of the method: (§1)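 Values are thermal stability changes relative to control samples and are taken from duplicates. They are stated as log2 fold changes. Before quantification by TMTpro 16plex LC-MS/MS with equalised channel sums, K562 cells at 2×10^6 cells/mL were treated with 10 μM compound for 30 min, heated in aliquots for 3 min across 48°C-58°C, pooled, extracted in PBS with 0.5% NP-40 at 4°C, and centrifuged at 21,000xg for 90 min to give the soluble supernatant.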

Amino acid sequences for entries named in this document (tags omitted). A change or cut given only in a name is not applied to a line headed by its entry.
UniProt O43924: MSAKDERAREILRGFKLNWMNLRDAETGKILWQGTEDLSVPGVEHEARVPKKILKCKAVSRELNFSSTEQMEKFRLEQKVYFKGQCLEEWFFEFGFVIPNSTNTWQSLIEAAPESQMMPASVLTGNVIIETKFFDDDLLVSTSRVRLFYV
UniProt Q9H2J4: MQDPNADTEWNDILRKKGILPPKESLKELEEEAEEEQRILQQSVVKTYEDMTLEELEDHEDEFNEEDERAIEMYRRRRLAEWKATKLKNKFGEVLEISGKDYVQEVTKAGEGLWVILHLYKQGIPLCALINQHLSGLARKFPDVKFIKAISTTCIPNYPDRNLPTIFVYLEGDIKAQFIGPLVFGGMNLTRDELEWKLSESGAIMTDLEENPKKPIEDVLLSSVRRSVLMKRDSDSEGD
UniProt O00764: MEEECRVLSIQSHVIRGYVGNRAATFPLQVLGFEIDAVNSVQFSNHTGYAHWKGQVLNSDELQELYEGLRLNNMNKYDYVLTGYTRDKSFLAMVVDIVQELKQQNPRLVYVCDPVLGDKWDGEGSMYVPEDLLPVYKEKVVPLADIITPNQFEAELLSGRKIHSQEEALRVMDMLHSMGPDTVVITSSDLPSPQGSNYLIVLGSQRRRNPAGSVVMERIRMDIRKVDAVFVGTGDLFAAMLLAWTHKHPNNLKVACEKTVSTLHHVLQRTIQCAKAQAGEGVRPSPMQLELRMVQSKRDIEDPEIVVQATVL
UniProt Q5T2R2: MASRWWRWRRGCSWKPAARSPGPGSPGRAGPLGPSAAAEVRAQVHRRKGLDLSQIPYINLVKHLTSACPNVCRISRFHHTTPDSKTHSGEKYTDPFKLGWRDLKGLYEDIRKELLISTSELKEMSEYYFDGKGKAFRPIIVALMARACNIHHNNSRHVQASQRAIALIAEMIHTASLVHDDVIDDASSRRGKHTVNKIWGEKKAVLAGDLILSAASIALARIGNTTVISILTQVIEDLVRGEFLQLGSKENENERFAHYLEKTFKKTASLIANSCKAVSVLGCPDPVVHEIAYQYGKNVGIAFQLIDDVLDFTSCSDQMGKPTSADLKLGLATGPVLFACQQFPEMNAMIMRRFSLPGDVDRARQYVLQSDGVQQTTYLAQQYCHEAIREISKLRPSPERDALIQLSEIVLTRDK
UniProt Q9BUH6, whole entry, looked up: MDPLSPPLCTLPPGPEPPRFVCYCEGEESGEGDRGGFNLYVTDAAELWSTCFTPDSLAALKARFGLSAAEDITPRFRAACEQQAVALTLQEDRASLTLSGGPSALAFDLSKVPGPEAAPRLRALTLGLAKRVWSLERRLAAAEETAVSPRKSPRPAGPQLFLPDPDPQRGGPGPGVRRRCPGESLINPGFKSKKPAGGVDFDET
UniProt Q13371: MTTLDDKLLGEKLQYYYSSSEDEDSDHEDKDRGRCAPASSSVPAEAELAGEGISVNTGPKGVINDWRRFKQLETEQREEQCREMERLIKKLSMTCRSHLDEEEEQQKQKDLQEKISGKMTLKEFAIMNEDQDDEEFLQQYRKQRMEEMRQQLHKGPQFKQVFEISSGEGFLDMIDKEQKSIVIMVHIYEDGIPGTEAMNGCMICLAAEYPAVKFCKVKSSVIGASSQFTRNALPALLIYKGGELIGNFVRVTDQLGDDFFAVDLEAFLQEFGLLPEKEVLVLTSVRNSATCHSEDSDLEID
UniProt P0DJ07: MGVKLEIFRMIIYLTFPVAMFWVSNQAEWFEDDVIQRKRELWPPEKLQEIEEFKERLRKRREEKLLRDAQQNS
UniProt Q14554: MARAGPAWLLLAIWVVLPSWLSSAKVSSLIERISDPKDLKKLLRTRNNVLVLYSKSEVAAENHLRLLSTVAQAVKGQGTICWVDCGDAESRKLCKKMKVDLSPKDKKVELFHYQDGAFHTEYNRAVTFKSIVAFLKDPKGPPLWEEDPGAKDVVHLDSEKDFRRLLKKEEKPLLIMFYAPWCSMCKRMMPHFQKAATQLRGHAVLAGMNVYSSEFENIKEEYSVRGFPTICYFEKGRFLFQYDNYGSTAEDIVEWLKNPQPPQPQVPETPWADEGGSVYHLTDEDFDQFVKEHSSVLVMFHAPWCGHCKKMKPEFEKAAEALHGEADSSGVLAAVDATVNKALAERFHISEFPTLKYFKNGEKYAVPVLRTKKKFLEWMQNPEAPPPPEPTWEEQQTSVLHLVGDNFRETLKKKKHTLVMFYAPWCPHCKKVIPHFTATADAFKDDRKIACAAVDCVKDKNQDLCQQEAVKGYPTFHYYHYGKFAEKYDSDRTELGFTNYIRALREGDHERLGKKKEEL
UniProt P05166: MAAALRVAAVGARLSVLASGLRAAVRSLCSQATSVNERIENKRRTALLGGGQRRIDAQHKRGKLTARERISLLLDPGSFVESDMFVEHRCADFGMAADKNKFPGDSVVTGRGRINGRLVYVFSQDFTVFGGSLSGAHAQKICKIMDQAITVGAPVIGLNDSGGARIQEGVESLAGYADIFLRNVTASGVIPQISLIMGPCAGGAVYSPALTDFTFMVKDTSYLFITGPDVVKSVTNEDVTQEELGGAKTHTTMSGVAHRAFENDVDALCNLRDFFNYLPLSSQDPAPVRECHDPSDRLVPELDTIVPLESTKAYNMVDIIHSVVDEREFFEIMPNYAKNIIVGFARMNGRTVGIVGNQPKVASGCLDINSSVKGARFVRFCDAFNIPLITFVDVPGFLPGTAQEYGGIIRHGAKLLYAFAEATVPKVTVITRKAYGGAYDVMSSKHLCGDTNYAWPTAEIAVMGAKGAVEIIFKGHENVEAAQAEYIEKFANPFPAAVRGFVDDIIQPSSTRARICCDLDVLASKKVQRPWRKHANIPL
UniProt O00151: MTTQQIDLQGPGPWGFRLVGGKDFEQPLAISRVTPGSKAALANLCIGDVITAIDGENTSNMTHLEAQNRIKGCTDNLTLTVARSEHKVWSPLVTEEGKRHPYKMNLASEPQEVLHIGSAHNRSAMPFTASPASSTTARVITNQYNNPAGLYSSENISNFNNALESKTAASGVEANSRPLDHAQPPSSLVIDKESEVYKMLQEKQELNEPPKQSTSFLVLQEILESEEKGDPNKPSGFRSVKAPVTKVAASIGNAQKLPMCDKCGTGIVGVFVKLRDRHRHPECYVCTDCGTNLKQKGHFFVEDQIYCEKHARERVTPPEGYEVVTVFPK
UniProt Q15084: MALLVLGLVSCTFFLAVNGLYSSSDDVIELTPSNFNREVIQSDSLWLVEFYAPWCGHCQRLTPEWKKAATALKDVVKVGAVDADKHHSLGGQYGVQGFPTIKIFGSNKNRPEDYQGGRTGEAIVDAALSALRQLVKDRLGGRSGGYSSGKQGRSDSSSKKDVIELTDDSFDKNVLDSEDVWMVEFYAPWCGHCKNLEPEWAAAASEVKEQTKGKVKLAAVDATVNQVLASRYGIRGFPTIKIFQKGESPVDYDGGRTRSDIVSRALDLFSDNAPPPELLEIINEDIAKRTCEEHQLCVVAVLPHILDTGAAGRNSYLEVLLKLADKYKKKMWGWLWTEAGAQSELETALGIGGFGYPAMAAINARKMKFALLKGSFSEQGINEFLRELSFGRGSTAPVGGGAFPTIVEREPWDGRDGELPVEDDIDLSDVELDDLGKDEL
UniProt Q9BTK6, whole entry, looked up: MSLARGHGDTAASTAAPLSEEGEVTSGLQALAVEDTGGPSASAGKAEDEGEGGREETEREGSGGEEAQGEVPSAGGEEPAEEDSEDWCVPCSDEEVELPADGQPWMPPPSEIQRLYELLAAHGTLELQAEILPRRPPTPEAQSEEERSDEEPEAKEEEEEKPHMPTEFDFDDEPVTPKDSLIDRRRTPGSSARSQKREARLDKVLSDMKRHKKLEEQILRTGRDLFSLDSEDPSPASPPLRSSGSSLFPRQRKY
UniProt O60829: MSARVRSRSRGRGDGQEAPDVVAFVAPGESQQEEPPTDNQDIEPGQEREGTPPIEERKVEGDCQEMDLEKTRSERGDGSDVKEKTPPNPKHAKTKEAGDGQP
UniProt Q99447: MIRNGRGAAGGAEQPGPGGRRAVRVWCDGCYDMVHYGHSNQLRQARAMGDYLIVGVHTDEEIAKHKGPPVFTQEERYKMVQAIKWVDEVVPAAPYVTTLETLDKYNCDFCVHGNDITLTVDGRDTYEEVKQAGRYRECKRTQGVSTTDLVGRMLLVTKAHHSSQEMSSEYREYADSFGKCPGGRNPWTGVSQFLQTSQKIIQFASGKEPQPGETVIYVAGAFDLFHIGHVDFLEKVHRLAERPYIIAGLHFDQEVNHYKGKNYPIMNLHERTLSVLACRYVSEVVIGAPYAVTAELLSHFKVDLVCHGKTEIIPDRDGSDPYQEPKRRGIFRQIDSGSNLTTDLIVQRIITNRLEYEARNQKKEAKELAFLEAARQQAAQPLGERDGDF
UniProt Q15118, whole entry, looked up: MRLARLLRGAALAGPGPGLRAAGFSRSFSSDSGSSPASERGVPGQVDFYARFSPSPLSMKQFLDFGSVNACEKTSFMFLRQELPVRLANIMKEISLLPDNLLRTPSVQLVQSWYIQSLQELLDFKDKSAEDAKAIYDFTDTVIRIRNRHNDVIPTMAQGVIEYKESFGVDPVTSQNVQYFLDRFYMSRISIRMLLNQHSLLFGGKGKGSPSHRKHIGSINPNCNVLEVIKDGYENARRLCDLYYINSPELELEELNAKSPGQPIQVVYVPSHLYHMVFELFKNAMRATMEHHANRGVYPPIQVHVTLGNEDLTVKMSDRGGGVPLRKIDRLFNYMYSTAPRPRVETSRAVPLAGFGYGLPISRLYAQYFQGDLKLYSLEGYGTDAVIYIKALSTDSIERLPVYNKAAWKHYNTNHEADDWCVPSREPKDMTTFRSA
UniProt Q7L3T8: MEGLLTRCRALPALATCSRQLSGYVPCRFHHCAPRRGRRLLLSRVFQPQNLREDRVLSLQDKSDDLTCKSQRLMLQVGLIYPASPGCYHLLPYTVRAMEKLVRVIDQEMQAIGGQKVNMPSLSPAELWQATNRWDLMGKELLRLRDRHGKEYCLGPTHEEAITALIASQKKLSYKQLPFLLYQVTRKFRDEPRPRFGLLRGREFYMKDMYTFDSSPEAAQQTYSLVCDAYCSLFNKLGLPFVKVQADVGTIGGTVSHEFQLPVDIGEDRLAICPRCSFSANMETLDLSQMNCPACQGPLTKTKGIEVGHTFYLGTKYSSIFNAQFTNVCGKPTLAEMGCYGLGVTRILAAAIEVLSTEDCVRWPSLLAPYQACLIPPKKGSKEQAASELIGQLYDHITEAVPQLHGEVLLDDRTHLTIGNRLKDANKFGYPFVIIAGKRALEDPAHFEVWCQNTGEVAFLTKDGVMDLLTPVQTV
UniProt P56645: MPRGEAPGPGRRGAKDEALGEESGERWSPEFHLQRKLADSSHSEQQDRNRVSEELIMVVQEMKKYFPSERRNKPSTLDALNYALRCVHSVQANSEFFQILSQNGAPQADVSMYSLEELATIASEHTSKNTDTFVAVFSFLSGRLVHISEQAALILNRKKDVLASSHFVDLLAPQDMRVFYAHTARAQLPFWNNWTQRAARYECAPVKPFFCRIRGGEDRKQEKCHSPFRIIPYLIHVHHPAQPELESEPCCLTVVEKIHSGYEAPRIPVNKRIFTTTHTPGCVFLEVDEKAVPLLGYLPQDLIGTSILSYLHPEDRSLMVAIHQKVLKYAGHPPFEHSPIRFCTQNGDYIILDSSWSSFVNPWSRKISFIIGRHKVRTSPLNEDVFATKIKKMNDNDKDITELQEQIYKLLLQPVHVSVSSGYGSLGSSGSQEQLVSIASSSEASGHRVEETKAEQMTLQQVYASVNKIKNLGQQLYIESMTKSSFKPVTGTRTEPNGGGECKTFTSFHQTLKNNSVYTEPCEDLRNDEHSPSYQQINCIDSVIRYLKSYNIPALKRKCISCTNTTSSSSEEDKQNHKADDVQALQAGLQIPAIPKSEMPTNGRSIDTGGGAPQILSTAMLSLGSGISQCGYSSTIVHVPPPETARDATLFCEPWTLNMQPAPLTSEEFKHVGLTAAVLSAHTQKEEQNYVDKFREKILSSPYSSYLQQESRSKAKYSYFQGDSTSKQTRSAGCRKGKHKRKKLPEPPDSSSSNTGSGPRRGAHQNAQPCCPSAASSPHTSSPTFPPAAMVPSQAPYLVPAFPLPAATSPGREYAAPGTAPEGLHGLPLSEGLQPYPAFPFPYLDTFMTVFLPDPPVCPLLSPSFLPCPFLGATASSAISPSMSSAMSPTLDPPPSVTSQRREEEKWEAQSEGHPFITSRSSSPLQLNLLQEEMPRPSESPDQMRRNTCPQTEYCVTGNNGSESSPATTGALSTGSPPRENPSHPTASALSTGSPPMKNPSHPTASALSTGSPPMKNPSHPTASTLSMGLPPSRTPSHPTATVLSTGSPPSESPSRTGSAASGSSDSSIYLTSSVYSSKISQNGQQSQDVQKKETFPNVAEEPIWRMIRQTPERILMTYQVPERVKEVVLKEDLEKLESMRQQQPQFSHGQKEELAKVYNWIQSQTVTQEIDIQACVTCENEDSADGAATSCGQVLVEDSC

[2] = compound: NC(=O)c1cnc(N[C@@H]2CCCC[C@@H]2N)nc1Nc1cccc(-n2nccn2)c1
Summary of the method: as §1

[3] = compound: NC1(c2ccc(-c3nc4ccn5c(=O)[nH]nc5c4cc3-c3ccccc3)cc2)CCC1
Summary of the method: as §1

[4] = compound: NCC(=O)Nc1ccc(-n2nc(C(F)(F)F)cc2-c2ccc3c(ccc4ccccc43)c2)cc1
Summary of the method: as §1

entinostat = compound: Nc1ccccc1NC(=O)c1ccc(CNC(=O)OCc2cccnc2)cc1 [entinostat]
Summary of the method: as §1

vorinostat = compound: O=C(CCCCCCC(=O)Nc1ccccc1)NO [vorinostat]
Summary of the method: as §1

silmitasertib = compound: O=C(O)c1ccc2c(c1)nc(Nc1cccc(Cl)c1)c1ccncc12 [silmitasertib]
Summary of the method: as §1

[5] = compound: O=C1NC(=O)C(c2cnc3ccccn23)=C1c1cn2c3c(cc(F)cc13)CN(C(=O)N1CCCCC1)CC2
Summary of the method: as §1

citarinostat = compound: O=C(CCCCCCNC(=O)c1cnc(N(c2ccccc2)c2ccccc2Cl)nc1)NO [citarinostat]
Summary of the method: as §1

[6] = compound: c1cc(OCCN2CCCCC2)cc(-c2n[nH]c3ccc(-c4nnc[nH]4)cc23)c1
Summary of the method: as §1

entospletinib = compound: c1cn2cc(-c3ccc4cn[nH]c4c3)nc(Nc3ccc(N4CCOCC4)cc3)c2n1 [entospletinib]
Summary of the method: as §1

Measured: log2 fold change

PDE6D (UniProt O43924)
inactive: [1] 0.001 | [2] -0.113 | [3] 0.122 | [4] 0.025 | entinostat 0.125 | vorinostat -0.007 | silmitasertib 0.077 | [5] 0.009

PDCL3 (UniProt Q9H2J4)
inactive: [1] -0.009 | [2] -0.034 | [3] -0.049 | [4] -0.014 | entinostat -0.023 | vorinostat 0.002 | citarinostat 0.037 | silmitasertib 0.014 | [5] -0.061 | [6] -0.004 | entospletinib -0.023

PDXK (UniProt O00764)
inactive: [1] 0.027 | [2] 0.01 | [3] 0.026 | [4] 0.091 | entinostat -0.038 | vorinostat 0.02 | citarinostat 0.042 | silmitasertib -0.007 | [5] 0.05 | [6] -0.054 | entospletinib 0.027

PDSS1 (UniProt Q5T2R2)
inactive: [1] -0.009 | [2] -0.051 | [3] -0.127 | [4] -0.055 | entinostat -0.053 | vorinostat -0.09 | citarinostat 0.02 | silmitasertib -0.088 | [5] -0.181 | [6] -0.053 | entospletinib -0.079

PAXX (UniProt Q9BUH6)
inactive: [1] -0.029 | [2] 0.037 | [3] -0.003 | [4] 0.006 | entinostat 0.003 | vorinostat -0.005 | citarinostat -0.003 | silmitasertib -0.017 | [5] -0.054 | [6] 0.018 | entospletinib 0.015

PDCL (UniProt Q13371)
inactive: [1] -0.082 | [2] -0.066 | [3] -0.217 | [4] -0.016 | entinostat 0.028 | vorinostat 0.051 | citarinostat 0.122 | silmitasertib -0.009 | [5] 0.02 | [6] 0.044 | entospletinib -0.016

PET100 (UniProt P0DJ07)
inactive: [1] -0.009 | [2] 0.008 | [3] 0.032 | [4] 0.005 | entinostat -0.122 | vorinostat -0.054 | citarinostat -0.03 | silmitasertib -0.079 | [5] -0.027 | [6] 0.016 | entospletinib 0.014

PDIA5 (UniProt Q14554)
inactive: [1] 0.014 | [2] 0.052 | [3] -0.039 | [4] 0.065 | entinostat 0.007 | vorinostat -0.015 | citarinostat 0.039 | silmitasertib 0.021 | [5] 0.003 | [6] -0.061 | entospletinib -0.008

PCCB isoform 2 (UniProt P05166)
inactive: [1] -0.003 | [2] -0.009 | [3] -0.052 | [4] 0.044 | entinostat -0.005 | vorinostat -0.007 | citarinostat -0.007 | silmitasertib -0.021 | [5] -0.019 | [6] -0.019 | entospletinib 0.023

PDLIM1 (UniProt O00151)
inactive: [1] 0.032 | [2] -0.046 | [3] 0.028 | [4] 0.023 | entinostat -0.001 | vorinostat -0.008 | citarinostat -0.017 | silmitasertib -0.035 | [5] 0.004 | [6] 0.056 | entospletinib 0.022

Quoted at random: 2 records from the list, in no set order.
PDIA5 (UniProt Q14554)
inactive: [1] 0.014 | [2] 0.052 | [3] -0.039 | [4] 0.065 | entinostat 0.007 | vorinostat -0.015 | citarinostat 0.039 | silmitasertib 0.021 | [5] 0.003 | [6] -0.061 | entospletinib -0.008

PDCL (UniProt Q13371)
inactive: [1] -0.082 | [2] -0.066 | [3] -0.217 | [4] -0.016 | entinostat 0.028 | vorinostat 0.051 | citarinostat 0.122 | silmitasertib -0.009 | [5] 0.02 | [6] 0.044 | entospletinib -0.016

(next part)

PDXDC1 (UniProt Q6P996)
inactive: [1] 0.003 | [2] 0.206 | [3] 0.125 | [4] 0.16 | entinostat 0.035 | vorinostat -0.163 | citarinostat -0.033 | silmitasertib 0.19 | [5] 0.027 | [6] -0.157 | entospletinib 0.207

PDIA6 isoform 2 (UniProt Q15084)
inactive: [1] -0.024 | [2] 0.011 | [3] -0.013 | [4] 0.019 | entinostat 0.006 | vorinostat -0.046 | citarinostat -0.001 | silmitasertib 0.016 | [5] -0.01 | [6] 0.064 | entospletinib -0.028

PANK4 (UniProt Q9NVE7)
inactive: [1] -0.015 | [2] -0.03 | [3] -0.032 | [4] -0.033 | entinostat -0.004 | vorinostat 0.002 | citarinostat 0.058 | silmitasertib 0 | [5] -0.034 | [6] -0.038 | entospletinib -0.11

PAGR1 (UniProt Q9BTK6)
inactive: [1] 0.114 | [2] 0.044 | [3] 0.036 | [4] 0.103 | entinostat 0.069 | vorinostat 0.022 | citarinostat 0.011 | silmitasertib 0.045 | [5] 0.022 | [6] -0.006 | entospletinib -0.071

PAGE4 (UniProt O60829)
inactive: [1] 0.128 | [2] 0.13 | [3] 0.103 | [4] 0.003 | entinostat 0.139 | vorinostat -0.178 | citarinostat 0.03 | silmitasertib 0.069 | [5] 0.143 | [6] -0.042 | entospletinib -0.009

PCYT2 isoform 3 (UniProt Q99447)
inactive: [1] 0.018 | [2] 0 | [3] -0.079 | [4] 0.006 | entinostat -0.02 | vorinostat -0.009 | citarinostat 0.046 | silmitasertib -0.02 | [5] -0.042 | [6] 0.006 | entospletinib -0.039

PDK1 (UniProt Q15118)
inactive: [1] 0.051 | [2] -0.04 | [3] 0.12 | [4] -0.016 | entinostat -0.04 | vorinostat -0.072 | citarinostat -0.062 | silmitasertib 0.031 | [5] -0.11 | [6] 0.025 | entospletinib 0.015

PARS2 (UniProt Q7L3T8)
inactive: [1] 0.079 | [2] -0.034 | [3] 0.015 | [4] 0.058 | entinostat -0.025 | vorinostat -0.002 | citarinostat 0.004 | silmitasertib 0.033 | [5] 0.093 | [6] -0.037 | entospletinib 0.05

PANK1 (UniProt Q8TE04)
inactive: [1] -0.065 | [2] -0.125 | [3] -0.06 | [4] -0.034 | entinostat 0.001 | vorinostat 0.039 | citarinostat 0.151 | silmitasertib -0.014 | [5] -0.034 | [6] -0.188 | entospletinib -0.12

PER3 isoform 2 (UniProt P56645)
inactive: [1] 0.042 | [2] 0.007 | [3] 0.052 | [4] 0.037 | entinostat -0.037 | vorinostat -0.013 | citarinostat -0.066 | silmitasertib -0.025 | [5] -0.09 | [6] -0.059 | entospletinib 0.059

PCYOX1L (UniProt Q8NBM8)
inactive: [1] -0.012 | [2] -0.03 | [3] -0.025 | [4] 0.04 | entinostat -0.049 | vorinostat -0.034 | citarinostat 0.036 | silmitasertib -0.005 | [5] 0.037 | [6] -0.011 | entospletinib 0.008

From the supplement of paper PMC10849652
